Not every detail of the peptide structures is certain; ends, links or a residue may be inferred. Where no end group is shown, it is not given here.
How the values were obtained:
HaCat cell strain = experiment: Cell proliferation detection (MTT, absorbance 570 nm); assay type: cell-based; conditions: FIG. 27
NIH/3T3 cell = experiment: Cell adhesion activity detection (LDH kit, OD492 nm); assay type: cell-based; conditions: for cell adhesion activity compared with larger-molecular-weight recombinant type-III collagen: equivalent concentrations (0.5 mg/mL), NIH/3T3, Duncan's method P<0.05; for cell adhesion activity (absorbance at OD492 nm) compared with natural human collagen: protein coated at 0.5 mg/mL, NIH/3T3 cells, 60 minutes, FIG. 26
Procedure: References for Detection Method for Cell Adhesion Activity of Recombinant Small-Molecule Collagen: Juming Yao, Satoshi Yanagisawa, Tetsuo Asakura. Design, Expression and Characterization of Collagen-Like Proteins Based on the Cell Adhesive and Crosslinking Sequences Derived from natural Collagens, J Biochem. 136, 643-649 (2004).
Specific implementation method: A NIH/3T3 cell was cultured under standard conditions (purchased from Cell Bank of the Chinese Academy of Sciences, with catalog number of GNM6. Culture and passage methods followed a cell instruction). […] A natural human collagen (Sigma, Catalog No. C7774) was compared to a bovine serum albumin solution (BSA, purchased from Sangon Biotech (Shanghai) Co., Ltd.) (in ultrapure water or 1M HCl solution). Protein concentration was determined using the UV protein quantification empirical formula: C (mg/mL)=0.144×(A215-A225). Then, the protein was diluted to 0.5 mg/mL with PBS (pH 7.4).
100 μL of various protein solutions and blank PBS solution were added to a 96-well cell culture plate, and set aside 60 minutes at room temperature. Then, […] NIH/3T3 cells with good culture status were added to each well, and incubated at 37° C. and 5% CO2 for 60 minutes. The cells were cleaned in the wells 4 times with PBS. An absorbance value at OD492 nm was detected using a LDH detection kit (Roche, 04744926001). Data were analyzed and subject to significant differential analysis (SPSS 22 software, Duncan's method, P<0.05).
The absorbance value at OD492 nm characterized the cell adhesion activity of a collagen sample: higher adhesion activity indicated more cells adhering to the protein.

Compound	HaCat cell proliferation-promoting effect (positive control) (HaCat cell strain; hEGF at 0.125-1 ng/mL)	cell adhesion activity compared with larger-molecular-weight recombinant type-III collagen (NIH/3T3 cell)	cell adhesion activity (absorbance at OD492 nm) compared with natural human collagen (NIH/3T3 cell)	HaCat cell proliferation-promoting effect (HaCat cell strain; concentrations ranging from 0.125 to 1 mg/mL)
CC[C@H](C)[C@@H]1NC(=O)[C@H](Cc2ccc(O)cc2)NC(=O)CNC(=O)[C@H](C(C)C)NC(=O)[C@H](C(C)C)NC(=O)[C@@H](NC(=O)[C@H](CC(N)=O)NC(=O)[C@@H]2CSSC[C@@H]3NC(=O)[C@H](Cc4ccc(O)cc4)NC(=O)CNC(=O)[C@H](CC(=O)O)NC(=O)[C@H](Cc4c[nH]cn4)NC(=O)[C@H](CO)NC(=O)[C@H](CC(C)C)NC(=O)[C@@H]4CCCN4C(=O)[C@@H](NC(=O)[C@H](CCC(=O)O)NC(=O)[C@H](CO)NC(=O)[C@H](CC(=O)O)NC(=O)[C@H](CO)NC(=O)[C@@H](N)CC(N)=O)CSSC[C@H](NC(=O)[C@H](C(C)C)NC(=O)CNC(=O)[C@H](CC(=O)O)NC(=O)[C@H](Cc4c[nH]cn4)NC(=O)[C@H](CC(C)C)NC3=O)C(=O)N[C@@H](CCSC)C(=O)N[C@@H](Cc3ccc(O)cc3)C(=O)N[C@@H]([C@@H](C)CC)C(=O)N[C@@H](CCC(=O)O)C(=O)N[C@@H](C)C(=O)N[C@@H](CC(C)C)C(=O)N[C@@H](CC(=O)O)C(=O)N[C@@H](CCCCN)C(=O)N[C@@H](Cc3ccc(O)cc3)C(=O)N[C@@H](C)C(=O)N2)CSSC[C@@H](C(=O)N[C@@H](CCC(N)=O)C(=O)N[C@@H](Cc2ccc(O)cc2)C(=O)N[C@@H](CCCNC(=N)N)C(=O)N[C@@H](CC(=O)O)C(=O)N[C@@H](CC(C)C)C(=O)N[C@@H](CCCCN)C(=O)N[C@@H](Cc2c[nH]c3ccccc23)C(=O)N[C@@H](Cc2c[nH]c3ccccc23)C(=O)N[C@@H](CCC(=O)O)C(=O)N[C@@H](CC(C)C)C(=O)N[C@@H](CCCNC(=N)N)C(=O)O)NC(=O)[C@H](CCCNC(=N)N)NC(=O)[C@H](CCC(=O)O)NC(=O)CNC1=O [hEGF, reference compound]	promoted HaCat cell proliferation			
GKSGDRGESGPAGPAGAPGPAGSRGAPGPQGPRGDKGETGERGAAGIKGH [3A5D2NT]		significantly outperformed	comparable to or superior to that of a natural human collagen	
GKSGDRGESGPAGPAGAPGPAGSRGAPGPQGPRGDKGETGERGAAGIKGHRGLE [3A5D29N]		significantly outperformed	comparable to or superior to that of a natural human collagen	promoted HaCat cell proliferation

— patent US20260146274A1, “RECOMBINANT SMALL-MOLECULE COLLAGEN, EXPRESSION SYSTEM THEREOF, AND PREPARATION METHOD THEREOF” (JIANGSU TRAUTEC MEDICAL TECHNOLOGY CO., LTD., priority 2023, published 2026)
